Test results from PubChem BioAssay AID540256 (National Center for Advancing Translational Sciences (NCATS), 2011).
Among all 300,000 compounds or so, about 3,700 (1.2%) were called active. The inconclusive results got no clear call from the source; some entries with a clear call stand among them for comparison. Calls come from the whole dose curve; tested in HEK293 cells. Potencies of inconclusive entries are doubtful fits and often do not repeat.

Experiment: qHTS for Inhibitors of binding or entry into cells for Lassa Virus; note: nearly all actives have a fitted effect of over 50% in size
Conditions: Lassa virus pseudotype entry inhibition, cell reporter; series mostly up to 37.9 µM
Potency is the fitted concentration of half-maximal effect.

Row | SMILES | Potency
1 | N#Cc1cc(Oc2ccc(Cl)cc2)c(N2CCOCC2)cc1C#N | inconclusive: 5.62 µM [inhibitor, partial curve, poor fit]
2 | CCn1c(Cc2ccccc2)nnc1SCC(=O)Nc1cc(C)on1 | inactive
3 | COc1cccc(OC)c1C(=O)Nc1ccc2c(c1)CCCN2S(=O)(=O)c1ccc(C)cc1 | inactive
4 | Cc1ccc(C)c(NC(=O)/C(C#N)=C/c2ccc[nH]2)c1 | inconclusive: 22.4 µM [inhibitor, single point]
5 | COc1ccc(NC(=O)CCn2ccnc2)c(OC)c1 | inconclusive: 0.794 µM [activator, full curve, poor fit]
6 | Clc1ccccc1Cn1nnc2c(Nc3ccccc3)ncnc21 | inconclusive: 11.6 µM [inhibitor, partial curve]
7 | CN(C)c1ccc(/C=C/c2cccc[n+]2[O-])cc1 | inconclusive: 35.5 µM [inhibitor, single point]
8 | COc1ccc(N=C2C(=Nc3ccc(OC)cc3)N(c3ccc(OC)cc3)C(=S)N2C(=O)c2ccc(OC)cc2)cc1 | inactive
9 | COc1ccccc1NC(=O)CN1CCC(n2nnc3cc(F)ccc32)CC1 | inactive
10 | O=[N+]([O-])c1ccc(-c2cnc(SC(c3ccccc3)c3ccccc3)[nH]2)cc1 | active: 3.55 µM
11 | CN(C)c1cc(N)c2c(n1)CCC2 (tested in a mixture with another compound) | inconclusive: 5.8 µM [activator, full curve]
12 | O=c1n(CC2CO2)c(=O)n(CC2CO2)c(=O)n1CC1CO1 (centres undefined) | inconclusive: 7.94 µM [inhibitor, partial curve]
13 | CN(C)C(=O)Oc1ccc(-c2cn3cc(Cl)ccc3n2)cc1 | inconclusive: 9.2 µM [inhibitor, partial curve, poor fit]
14 | Cc1ccccc1NC(=O)c1ccc(NC(=O)C2CCCO2)cc1 (centres undefined) | inactive
15 | CC(=O)c1cc(-c2ccccc2)n(CCC(=O)Nc2cc(C)cc(C)c2)c1C | inconclusive: 20 µM [inhibitor, single point]
16 | COc1ccccc1-n1ccn(CC(=O)Nc2ccc(C)cc2Cl)c(=O)c1=O | inconclusive: 0.794 µM [inhibitor, single point]
17 | CCOc1ccc(-c2cc(C(F)(F)F)c(C#N)c(SCC(=O)Nc3ccccc3)n2)cc1 | inactive
18 | O=C(N/N=C/c1ccccc1OCc1ccccc1Cl)c1cccnc1 | inconclusive: 7.94 µM [inhibitor, partial curve, poor fit]
19 | Cc1ccc(N(C(=O)CCC(=O)Nc2cc(C)on2)C(C(=O)NC2CCCC2)c2cccs2)cc1 (centres undefined) | inconclusive: 35.5 µM [inhibitor, single point]
20 | CCOc1ccccc1NC(=O)CSc1cc(=O)n(CC)c2ccccc12 | inconclusive: 22.4 µM [inhibitor, single point]
21 | CCCCNC(=O)COC(=O)c1c2c(nc3ccccc13)/C(=C/c1cccs1)CC2 | inconclusive: 2.82 µM [inhibitor, single point]
22 | NC(=O)c1ccc[n+](CC(=O)Nc2ccccc2C(=O)O)c1 | inactive

Row | SMILES | Potency
23 | CC(=O)N(C)C1=C(N2CCOCC2)C(=O)c2ccccc2C1=O | active: 0.58 µM
24 | CC1CCCCN1C(=O)CSc1nc2ccccc2[nH]1 (centres undefined) | inactive
25 | Cc1ccccc1C(=O)Nc1cccc(C(=O)N/N=C/c2ccccn2)c1 | inactive
26 | CCN1CCc2nc(NC(=O)c3cc(F)c(F)cc3Cl)sc2C1 | inconclusive: 7.94 µM [activator, single point]
27 | COc1ccc(Cl)cc1NC(=S)N(CCCN1CCOCC1)Cc1cn(C)c2ccccc12 | inactive
28 | Cn1c(=O)c2[nH]c(-c3ccc(S(=O)(=O)O)cc3)nc2n(C)c1=O | inconclusive: 0.0259 µM [activator, full curve, poor fit]
29 | O=C(NC(=S)N1CCCc2ccccc21)c1ccc(Br)cc1 | inactive
30 | CSc1nc2c([nH]c3ccccc32)c(=O)n1-c1ccc(F)cc1 | inconclusive: 25.1 µM [inhibitor, single point]
31 | O=[N+]([O-])c1ccc(C(O)CN2CCN(Cc3ccccc3)CC2)cc1 (centres undefined) | inactive
32 | Cc1sc2ncn(/N=C/c3ccco3)c(=O)c2c1C | inconclusive: 11.2 µM [activator, partial curve, poor fit]
33 | CCOC(=O)C(C)Oc1cc(C)cc2oc(=O)c3c(c12)CCCC3 (centres undefined) | inconclusive: 16.4 µM [inhibitor, single point]
34 | Cn1c(C(=O)NCc2cccc(F)c2)cc2cc(S(=O)(=O)N3CCCCC3)ccc21 | inconclusive: 14.1 µM [inhibitor, single point]
35 | COc1cccc(-c2nc(C(N)=O)c3c(n2)n(-c2ccc4c(c2)OCO4)c(=O)n3C)c1OC | inconclusive: 3.16 µM [inhibitor, full curve]
36 | N/C(=N\OC(=O)c1cc(Cl)ccc1Cl)c1ccncc1 | inconclusive: 1.12 µM [activator, partial curve, poor fit]
37 | O=[N+]([O-])c1ccc(-c2cn3nc(-c4ccccc4)c(-c4ccccc4)nc3n2)cc1 | inactive
38 | O=C(NCC1CCCO1)c1cccc(S(=O)(=O)Nc2cccc(C(F)(F)F)c2)c1 (centres undefined) | inconclusive: 35.5 µM [inhibitor, single point]
39 | COc1ccc(NC(=O)C2=C(C)C(=O)OC23CCC(C)CC3)cc1Cl (centres undefined) | inconclusive: 29.1 µM [inhibitor, single point]
40 | COc1ccc(-c2onc(C)c2C)cc1S(=O)(=O)N1CCC(C)CC1 | inactive
41 | CC(C)(C)N(NC(=O)Nc1ccc(Cl)c(Cl)c1)C(=O)c1ccccc1 | inconclusive: 15.8 µM [inhibitor, partial curve, poor fit]
42 | Cc1ccc(Cl)cc1NS(=O)(=O)c1ccccc1 | inconclusive: 0.562 µM [activator, full curve, poor fit]
43 | O=C(CSc1nnc(Cn2nnc(-c3ccccc3)n2)n1-c1ccccc1)Nc1ccccc1 | inactive
44 | CC(C)CN(C(=O)COC(=O)CCC(=O)c1ccc(Cl)cc1)c1c(N)n(Cc2ccccc2)c(=O)[nH]c1=O | inconclusive: 35.5 µM [inhibitor, single point]

Two compounds picked at random from the list so far:
Row | SMILES | Potency
4 | Cc1ccc(C)c(NC(=O)/C(C#N)=C/c2ccc[nH]2)c1 | inconclusive: 22.4 µM [inhibitor, single point]
8 | COc1ccc(N=C2C(=Nc3ccc(OC)cc3)N(c3ccc(OC)cc3)C(=S)N2C(=O)c2ccc(OC)cc2)cc1 | inactive
